# Screening data, single-dose tests

Sequences of proteins named here, by UniProt entry; tags and fusion partners are left off. Residues count along the entry.
UniProt Q8IDJ8, 1-583: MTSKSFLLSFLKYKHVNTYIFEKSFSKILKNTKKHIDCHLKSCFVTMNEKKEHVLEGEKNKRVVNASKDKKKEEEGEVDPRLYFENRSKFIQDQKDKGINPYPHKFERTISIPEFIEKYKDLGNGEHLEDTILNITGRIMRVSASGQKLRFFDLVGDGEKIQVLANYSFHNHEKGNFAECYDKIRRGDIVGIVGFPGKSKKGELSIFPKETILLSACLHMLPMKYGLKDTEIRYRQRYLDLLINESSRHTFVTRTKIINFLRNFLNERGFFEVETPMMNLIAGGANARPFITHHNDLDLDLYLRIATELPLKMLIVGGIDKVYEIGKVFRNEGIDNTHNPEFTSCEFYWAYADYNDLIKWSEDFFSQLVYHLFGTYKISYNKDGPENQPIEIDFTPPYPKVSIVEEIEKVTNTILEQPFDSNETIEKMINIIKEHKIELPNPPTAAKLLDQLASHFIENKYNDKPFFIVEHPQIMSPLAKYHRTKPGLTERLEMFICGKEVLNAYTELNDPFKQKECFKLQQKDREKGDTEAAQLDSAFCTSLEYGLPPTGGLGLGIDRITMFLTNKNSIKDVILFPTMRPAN

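Enzyme assay of the cytosolic lysyl-tRNA synthetase in 384-well plates, read by luminescence. Target: Lysine-tRNA ligase, Plasmodium falciparum 3D7 (UniProt Q8IDJ8). Compounds at 30 µM. Higher reads as stronger inhibition, judged from the few compounds that gave an IC50. Of about 69,000 compounds tested this way, about 49 (0.071%) reached 50% or more in at least one test.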

Each number is a percent effect as filed.
How 0% and 100% were set is not recorded. Most values in the screen are low, and negative values occur.
The compounds are a random part of those screened.

structure | percent effect
COCC1CCN(CCOc2ccc(C#N)cc2OC)CC1 | -3.293
CC(CN1CCOCC1)NC(=O)N1CCN(S(C)(=O)=O)CC1 (stereo not given) | -4.024
COCCN1CCc2cc(C(=O)NC(C)C)c(NCC3CC3)nc2CC1 | 3.38
CC(C)=CCN1C(=O)[C@H]2CC[C@@H]1CN(c1ncccc1C(N)=O)C2 | 5.276
CNc1nc(CNC(=O)Nc2cccc(F)c2)cs1 | 4.235
COC1CCCN(C2CCN(c3cccc(-c4csc(C)n4)c3)CC2)C1 (stereo not given) | 1.663
COCCNc1nc2c(c(NCCc3cccs3)n1)CCNCC2 | -0.2264
CC(C)N1CCC2(CCNCC2)C1=O | 2.115
O=C(NCc1nc[nH]n1)c1cc(COc2ccccc2F)[nH]n1 | 1.247
COCCO[C@H]1CCN(Cc2cccs2)[C@H]1Cc1cccnc1 | -0.6335
CC(C)(C)OC(=O)N1CCCCC(NC(=O)CCc2cccnc2)C1 (stereo not given) | 3.704
Cc1cnc2cc(C3CCN(C(=O)c4ccncc4)CC3)[nH]c2n1 | 3.525
CCOc1ccc(Br)cc1S(=O)(=O)N(CC)Cc1ccc(N(C)C)cc1 | -1.006
COCCN1CCC(CNc2nccc(-c3cnn(C)c3)n2)CC1 | -2.233
COc1cccc(OC2CN(C(=O)c3ccnc(OC)c3)C2)c1 | 9.926
CN(C)CC(=O)N1CCCC1c1ccccn1 (stereo not given) | 1.068
COc1c(C2CCCN2CCOc2ccccc2C#N)c(C)nn1C (stereo not given) | -1.173
O=C(c1nc(=O)[nH][nH]1)N1CCC2(CCCCC2)C1 | 32.04
Cc1cc(C(=O)N2CCn3cnc(COCC4CC4)c3C2)no1 | 2.01
COc1ccnc(CNc2cc(C3CC3)ncn2)c1 | 0.06093
CN1CCCc2cc(CNC(=O)c3cc[n+]([O-])cc3)ccc21 | 0.799
O=C(c1ccc(-n2cnnc2)cc1Cl)N1CCCC2(CCNC2)C1 (stereo not given) | 1.84
COc1cc2cc(C(=O)O)n(C)c2c(OC)c1OC | 0.1283
O=C(NCC1CC1)[C@H]1C[C@H]2OCC[C@H]2N(CCc2ccccc2)C1 | 6.066
Cc1noc(CNC(=O)NCCc2ccc(Cl)cc2)n1 | 3.9
Cc1ccc(OCCC(=O)N2CCCC(n3nc(C)nc3C)C2)cc1 (stereo not given) | 0.7747
CCn1ncc(S(=O)(=O)N[C@@H]2CC[C@@H](n3ccnc3C)[C@@H]2O)c1C | -0.9823
Cc1ccc(OCC(O)COC2CCOCC2)c(Br)c1 (stereo not given) | 2.27
Cc1cccc(N2CC[C@@H]3CN(Cc4csc(C)n4)CCO[C@@H]3C2)n1 | 1.116
COc1ccccc1OCCn1c(C)c(C)oc1=O | -7.924
CCCNC(=O)NC(=O)CNC(C)(C)c1ccc2c(c1)OCO2 | 3.112
Cc1cc(CS(=O)(=O)NC2CCCCC2)on1 | 4.838
Cc1cc(NC(=O)NC2CCN(C(C)C)CC2)c2ncccc2c1 | 4.562
O=S(=O)(CCN1CCCCC1Cn1cccn1)c1ccccc1 (stereo not given) | 4.619
O=C(Nc1cn[nH]c1)N1CCN(CCSc2ccccc2)CC1 | -0.8917
CCCN1CCC=C(C2c3nc[nH]c3CCN2C(=O)c2ccco2)C1 (stereo not given) | 0.9397
Cn1nccc1-c1ncc2c(c1C(=O)O)CCN(Cc1ccccc1)C2 | -4.196
COCCC1COC2(CCN(C(=O)c3cccnc3)CC2)C1 (stereo not given) | 0.515
CC(C)NC(=O)C1CCC2(CCN(c3ncccn3)CC2)CO1 (stereo not given) | 1.438
Cc1ccc(CSc2nc(N)cc(NCCC(=O)N3CCCC3)n2)cc1 | 1.546
CCN(CC)C1CCN(c2ncnc3c2CCN(C(=O)C2CC2)C3)C1 (stereo not given) | 3.01
CS(=O)(=O)Cc1noc(CN2CCc3c(Cl)cccc3C2)n1 | -4.966
Cc1nc2cc(C(=O)N(CCC#N)CCC#N)ccc2n1C | 6.147
NC(=O)COc1cccc(C(=O)Nc2cnc3n2CCCC3)c1 | 4.819
CC(NCc1cnc(C2CCC2)s1)c1cccc(-n2cccn2)c1 (stereo not given) | -1.696
Cc1cccc(Cl)c1NC(=O)Cn1cc(C(=O)O)ccc1=O | 1.721
O=C(c1ccnnc1)N1CC[C@H](OCC2CC2)[C@@H]1Cc1ccncc1 | 2.032
CC(C)c1ncc2c(n1)CN(Cc1cccc(C(N)=O)c1)CC2 | 0.7909
C=C(C)COCCNC(=O)N1CCc2c(cccc2OC)C1 | 3.945
O=C(c1cc(Cl)ccc1OC1CCN(C2CCCC2)CC1)N1CCCO1 | -5.781
O=S(=O)(NCCN1CCOCC1)c1cncc(Cl)c1 | 0.2485
CN(CC(=O)Nc1cc(CC2CCCCC2)n[nH]1)S(C)(=O)=O | 0.166
NC(=O)C(NC(=O)c1cc(Br)c[nH]1)c1ccccc1 (stereo not given) | 0.6646
CCc1nc2n(n1)CC(NCC1=Cc3ccc(OC)cc3OC1)CC2 (stereo not given) | 12.54
Cc1cc(Cc2ccccc2F)cc(C2CCCNC2)n1 (stereo not given) | -0.4695
CCOC(=O)[C@]12CCCN(Cc3nccs3)C[C@H]1CN(C(C)=O)C2 | 0.737
CC(c1ccccc1Cl)N(C(=O)CSCC(N)=O)C1CC1 (stereo not given) | -0.3852
CC(O)CCn1ccc2[nH]c(=O)c(C#N)cc2c1=O (stereo not given) | 58.59
CC(=O)CSc1nc2c(cnn2CCO)c(=O)[nH]1 | 5.431
CC(C)n1ncc2c1NC(=O)CC2c1ccccc1Cl (stereo not given) | 7.459
CS(=O)(=O)NCC1CCCN(Cc2ccccc2F)C1 (stereo not given) | 1.744
COC(=O)CN(C(=O)C(C)c1c(F)cccc1F)c1cccc(C)n1 (stereo not given) | -1.222
CN(C)C(CNC(=O)c1[nH]nc(C2CC2)c1Br)C1CC1 (stereo not given) | 2.482
CCOc1cc(C)nc(N2CCN(Cc3nccn3C)CC2)n1 | 7.071
Cc1nc(C2CCN(C(=O)c3ccc(=O)n(C)c3)CC2)c2sccn12 | 0.8727
COc1ccc(OC)c(Sc2ncccc2C(=O)N(C)CCC#N)c1 | -2.604
CC(C)CN1CCCC(c2nc(O)c3cc(F)ccc3n2)C1 (stereo not given) | -4.552
O=C1CC2(CCN(Cc3ccc(C(F)(F)F)nc3)CC2)CN1 | -5.023
c1ccc(N2CCC(c3ccncc3)CC2)cc1 | 3.326
Cc1nc(CN2CCCN(C(=O)C3(C#N)CCCCC3)CC2)cs1 | 12.17

The last 5 entries again:

For COc1ccc(OC)c(Sc2ncccc2C(=O)N(C)CCC#N)c1 the result was -2.604%.
For CC(C)CN1CCCC(c2nc(O)c3cc(F)ccc3n2)C1 (stereo not given) the result was -4.552%.
For O=C1CC2(CCN(Cc3ccc(C(F)(F)F)nc3)CC2)CN1 the result was -5.023%.
For c1ccc(N2CCC(c3ccncc3)CC2)cc1 the result was 3.326%.
For Cc1nc(CN2CCCN(C(=O)C3(C#N)CCCCC3)CC2)cs1 the result was 12.17%.

From ChEMBL document CHEMBL3988442, “University of Dundee, Small-Polar-MMV Screening Library” (2021).